From patent US12622915B2, “Methods of treating PDE IV-mediated diseases or conditions” (Vanda Pharmaceuticals Inc., priority 2020, dated 2026)
At least one compound was matched to its structure with a doubt left.

System: IMQ induced psoriasis
Conditions: topical 0.5%
Protocol: Test Item Details • 1. Dexamethasone Cat. or Batch no.: BCBM4557V (sigma) • Vehicle for dexamethasone (Veh.1): acetone:ethanol (1:1) • Dose: 0.1 mg/ear & 0.25 mg in back skin • Dose volume: 20 μL/ear & 50 μL on back skin • 2. Crisaborole: PZ0037 (Sigma) • Vehicle (Veh.1): acetone:ethanol (1:1) • Dose: 0.1 mg/ear & 0.25 mg in back skin • Dose volume: 20 μL/ear, 50 μL on back skin • 3. Compound of Formula (I) • Vehicle (Veh.1): acetone:ethanol (1:1) • Dose: 0.1 mg/ear & 0.25 mg in back skin • Dose volume: 20 μL/ear, 50 μL on back skin Dexamethasone and Test Item Preparation and Application: • Strength=5 mg/ml
Application=100 μg/20 pit per each ear+250 μg/50 μL on the back G2 to G4 receive Dexamethasone, Crisaborole or test item: Daily topical treatment (D0-D6): 0.1 mg in 20 μl per ear x both the ears+0.25 mg in 50 μl (on the back) 6-8 hrs after IMQ application.
Disease Induction: Application of 5% IMQ cream 40 mg (back) and 5 mg (per ear—Inner surface) daily from day 0-6.
Treatment: 0.5% Dexamethasone solution: 0.25 mg (back) and 0.1 mg (per ear) 8 hrs post IMQ. • Day −2—Depilation on back region • Day 0—Observations (Body weight; ear thickness using digital microcaliper) • Day 2—Observations (Body weight; ear thickness using digital microcaliper) • Day 4—Observations (Body weight; ear thickness using digital microcaliper) • Day 6—Observations (Body weight; ear thickness using digital microcaliper); Blood collection (PK) and Termination {2 hrs after last dose) • Ear collection: PK, Cytokine, MPO, Thickness • Back skin collection, scoring and thickness measurement • Histopathology (optional)
The dorsal posterior area (2 cm×2 cm) of animals is depilated using a hair trimmer. 5% Imiquimod cream: 50 mg/animal (40 mg on the shaved back+5 mg each on the inner part of right and left ear) QD is applied on days 0 to 5 (Groups 1-4).
The body weight is recorded individually for all animals at receipt, day of randomization, prior to treatment, and once in two days thereafter. The animals are observed for mortality at regular intervals.
2 hrs post compound treatment on day 6, all the animals are euthanized, and ear tissues are collected. The right ear is flash frozen in liquid nitrogen and stored at −80° C. until homogenization for MPO and cytokine estimation.
The half of the left ear is used for drug concentration measurement. The other half of the left ear tissue is used for histopathology. The back skin is collected for visual assessment (scoring) and histopathology.
MPO analysis: Snap frozen ear tissue samples are homogenized in 1× assay buffer provided in the kit. The homogenates are centrifuged at 8000 g for 10 minutes in a refrigerated centrifuge. The supernatants are discarded, and the pellet is resuspended in solubilisation buffer (1× assay buffer containing 0.5% HTABr). The samples are homogenized and subjected to three rounds of freeze thaw followed by brief sonication for 10s. The samples are centrifuged at 12,000 g for 10 minutes in a refrigerated centrifuge and the resulting supernatants are analysed for MPO levels based on a fluorometric detection kit. The Kit utilizes a non-fluorescent detection reagent, which is oxidized in the presence of hydrogen peroxide and MPO to produce its fluorescent analogue. (Enzo Life Sciences; ADI-907-029).
Histopathology: At study termination, posterior dorsal skin and ear skin samples are collected. Skin samples are processed using routine histopathological methods and 4-5 μm paraffin sections are prepared. Tissue sections (3 serial sections/animal) are stained with Hematoxylin and eosin (H&E) to evaluate acanthosis, hyper/parakeratosis and inflammatory cellular infiltration in dermis. Severity of lesions are assessed semi quantitatively on a scale of 0-4 by two independent pathologists (0—normal, 1—mild degree, 2—moderate degree, 3—severe degree and 4—extensive or multiple locations) for each parameter in a blinded manner.

[1] = maximum score 16, vs IMQ control

Structure (SMILES): C[C@@H]1C[C@H]2[C@@H]3CCC4=CC(=O)C=C[C@]4(C)[C@@]3(F)[C@@H](O)C[C@]2(C)[C@@]1(O)C(=O)CO [Dexamethasone]
- Back skin thickness (day 6 at termination, vs IMQ control): significant reduction in back skin thickness (p<0.0001)
- Cumulative clinical scores (erythema, skin thickness, scales) (back skin, maximum score 12, vs IMQ control): significant reduction
- Extent of acanthosis, back skin (histopathology) (back skin, vs IMQ control): significant reduction
- Ear thickness (daily, vs IMQ control): significant reduction in ear thickness (p<0.001) on days 4 and 6
- Cellular infiltration, ear (histopathology) (ear skin, vs IMQ control): significant reduction
- Extent of acanthosis, ear (histopathology) (ear skin, vs IMQ control): significant reduction
- Cumulative HP score of back skin [1]: significant reduction
- Overall cumulative HP scores of ear skin [1]: significant reduction
- Extent of erythema, skin thickness and scales (back skin) (scale 0 to 4 each, vs IMQ control): significant reduction
- Spleen weight or normalized spleen weight (vs IMQ control): significant reduction in spleen weight (p<0.0001)
